According to PubChem BioAssay AID602296 (Broad Institute, 2012):
In all, about 2,000 compounds went through this assay and about 190 (9.5%) were called active. Not shown: some 14% with an inconclusive outcome.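 Rule for the calls: active = fitted activation curve crossing 40% at a concentration no higher than the sample's top valid tested dose; inconclusive = flat fitted curve at 30% to 70% activation, or poor curve fit; inactive = signal decrease, flat curve within 30%, or the rest.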 This part holds few or none of the hits.

Assay: sustained heat shock response element induction – cell-based, mouse, luciferase, cherry-pick, dose, confirmation (AID 602296);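 note: test compounds applied by themselves with no MG132 co-treatment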
Conditions: NIH3T3-HGL HSF-1 response element luciferase, 48 h; at 26 µM (top of the series) unless noted

activation, inactive:
O=C(CSc1nn(-c2ccc(F)cc2)c(=S)s1)N1CCN(C(=O)c2ccco2)CC1 21.5%
O=C(c1ccccn1)N(Cc1ccco1)C1(C(=O)NC2CCCC2)CCCCC1 -7.35%
CCOC(=O)N1CCN(C(=O)c2cnc3n(c2=O)CCS3)CC1 -14.1%
Cc1c(C#N)c(O)n(CCO)c(=O)c1N=Nc1ccc2c(c1)COC2=O -71.9%
Fc1ccc(-c2nnc3ccc(N4CCc5ccccc5C4)nn23)cc1 -21.3%
N#Cc1cc(Cl)c(NCC2CCCO2)cc1C#N (stereo not given) -8.57%
Cc1ccc(OC(=O)c2ccc(C)c(C)c2)cn1 0.572%
c1ccc(Cn2nnnc2C(c2cccs2)N2CCc3ccccc3C2)cc1 (stereo not given) -61.7%
CSc1sc(C(=O)OC(C)C)c2c1C(=O)CC(C)(C)C2 9.1%
CC1CC2(CCCCC2)Nc2ccc3ccccc3c21 (stereo not given) -10.7%
C=CCNCCOCCSc1ccc(Cl)cc1 2.19%
COc1ccc(Cl)cc1N(CC(=O)Nc1ccccc1SC)S(C)(=O)=O 5.09%
Cc1ccc(F)cc1NC(=O)N1CCCN(c2ccc(C(F)(F)F)cn2)CC1 -5.59%
CCCCNC(=S)NNC(=O)c1csc2ccccc12 13.2%
CC(C)(Oc1ccc(Cl)cc1)C(=O)Nc1ccc2oc(-c3ccncc3)nc2c1 12.7%
O=c1[nH][nH]c2cc(=O)n(-c3cccc(C(F)(F)F)c3)nc12 -5.51%
CC1=CC2=C(OC1N(C)C)c1cccc3cccc(c13)C2=O (stereo not given) -31.4%
COc1cc(/C=C/C(=O)c2c(O)ccc3c(C)cc(=O)oc23)ccc1O -4.95%
FC(F)(F)c1nnc(-c2ccccc2)nc1Sc1ccccc1 -96.8%
CCOc1ccc2nc(SCc3ccc(C(=O)OC)o3)[nH]c2c1 -12.3%
Cc1ccccc1-n1c(-c2ccc(Cl)cc2)cnc1SCC(=O)NC1CCS(=O)(=O)C1 (stereo not given) -15.9%
Clc1ccc(-n2cc(COCc3ccccc3)nn2)cc1 -82.4%
CSCCC(NS(=O)(=O)c1cccc(C(F)(F)F)c1)C(=O)N(C)CCOc1ccc(Cl)cc1 (stereo not given) -74.1%
CCOC(=O)N1CCN(C(=O)CS(=O)(=O)c2cn(Cc3ccc(F)cc3)c3ccccc23)CC1 -26.3%
CNc1c(NS(=O)(=O)c2ccc(F)c(Cl)c2)c(=O)oc2ccccc12 -16.6%
Cc1nc(N2CCC(C)CC2)c2c(C)c(C(=O)Nc3cccc(C(F)(F)F)c3)sc2n1 -24.8%
O=S(=O)(c1cc(Cl)ccc1Cl)N1CC2CCCN2c2ccc(C(F)(F)F)cc21 (stereo not given) -10.1%
Brc1ccccc1-n1nnc(-c2cnc3ccccc3c2)n1 -85.8%
CC(C(=O)Nc1ccccc1Br)N1c2cccc3cccc(c23)S1(=O)=O (stereo not given) -32.6%
COCCNC(=O)Cn1cnc2c1c(=O)n(C)c(=O)n2C -7.4%
CS(=O)(=O)Nc1cccc(C2=NN(C(=O)CCCC(=O)O)C(c3cccs3)C2)c1 (stereo not given) -4.69%
CCN(CC)S(=O)(=O)c1cc([N+](=O)[O-])ccc1NNC(=O)Nc1ccccc1OC -37%
COc1ccc(OC)c(N(CC(=O)N2CCC(C)CC2)S(=O)(=O)c2ccccc2)c1 -8.62%
Cc1onc(-c2ccccc2)c1C(=O)N/N=C/c1cccc(O)c1 -6.78%
Cc1ccc(S(=O)(=O)N2CCN(C(=O)CSc3ccc(Cl)cc3)CC2)cc1 -14.2%
COc1cccc(NC(=O)CSc2nc3c([nH]c4ccccc43)c(=O)n2C)c1 -40.4%
CN(C)CCCCNCCCNC(=O)/C=N\O 12.4%
COc1ccc(CNC(=O)C(c2ccc(C)o2)N(C(=O)c2csnn2)c2ccc(C(C)C)cc2)cc1 (stereo not given) -4.22%
CC(=O)Nc1ccc(S(=O)(=O)NC2=C(N3CCN(c4ccc(F)cc4)CC3)C(=O)c3ccccc3C2=O)cc1 -18.4%
COc1cccc(CNc2ccc([N+](=O)[O-])cc2Cl)c1O -1.25%
O=S(=O)(CC(CN1CCCCC1)N1CCCCC1)c1ccc2ccccc2c1 (stereo not given) 134%
CC(C)(C)c1ccc(OCC(=O)NN2Cc3ccccc3C2=N)cc1 10.8%
Cn1c(=O)c2c(nc(NCCO)n2C)n(C)c1=O 8.02%
OC[C@@H](O)C1OC2NC(=S)OC2C1O (stereo not given in full) -1.17%
CSc1ccc(C2C(C#N)=C(N)N(c3ccccc3)C3=C2C(=O)CCC3)cc1 (stereo not given) 8.29%
Cc1cc(Cl)ccc1C(=O)C1CCCN(C(=O)c2cnsn2)C1 (stereo not given) 13.6%
C=CCSC1=C(C#N)C(c2cccc(OC)c2)CC(=O)N1 (stereo not given) -3.87%
CCCCc1ccc(NS(=O)(=O)c2c(C)n(C)c(=O)n(C)c2=O)cc1 12.3%
O=C(Oc1cccc2cccnc12)c1ccc(Br)o1 11.6%
COc1cccc(N(CC(=O)N2CCc3ccccc3C2)S(C)(=O)=O)c1 7.66%
CC(=O)c1ccc(NC(=O)CCCN2C(=O)/C(=C/C(C)=C/c3ccccc3)SC2=S)cc1 -9.9%
O=C(c1ccc2nccnc2c1)N1CCCC(Nc2ccc(F)c(F)c2)C1 (stereo not given) 3.84%
Cc1cccc2cc(CN(Cc3ccco3)C(c3nnnn3CCc3ccccc3)C(C)C)c(=O)[nH]c12 (stereo not given) -36.5%
CC(C)c1nnc(SCc2ccc(CSc3nnc(C(C)C)n3N)cc2)n1N 4.27%
COc1ccc2cc(S(=O)(=O)N3CCCCC3)ccc2c1S(=O)(=O)N1CCCCC1 -15.5%
CCn1cc(C(=O)NN)c(=O)c2cc(F)c(NC3CCCCC3)cc21 4.29%
CCN(CC)CCCN1C(=O)c2oc3ccccc3c(=O)c2C1c1cccc(OC)c1OC (stereo not given) 3.52%
CCOC(=O)c1c(CN2CCC(C)CC2)n(C)c2cc(Br)c(OC)cc12 -19.1%
CCCCNc1nc(Nc2ccc(C)c(Cl)c2)c2cnn(C)c2n1 -101%
BrC(/C=C\c1ccccc1)=N/Nc1nc(N2CCOCC2)nc(N2CCOCC2)n1 -11.9%
O=C(CCCl)Nc1nc2c(s1)CCc1ccccc1-2 -39.2% [at 12 µM]
Cc1ccc(N(CCCCN2C(=O)c3ccccc3C2=O)C(=O)c2cccc([N+](=O)[O-])c2)cc1 -13.6%
COc1cc(NC(=O)C2=C(N3CCOCC3)/C(=C\c3ccc(Br)cc3)CC2)cc(OC)c1OC -13.4%
CCOC(=O)C1=C(c2ccccc2)NC(SC)=C(C#N)C1c1ccco1 (stereo not given) -20.1%
Cc1cccc(-[n+]2c(C)cc(C)c3c(=O)[nH]c(=O)[nH]c32)c1 2.83%
CC1SC(c2ccc(Cl)cc2)NC1=O (stereo not given) 2.02%
Cc1ccc(NC(=O)CCS(=O)(=O)c2ccc3c(c2)NC(=O)C(C)S3)nc1 (stereo not given) -0.18%
CCOC(=O)N1CCN(C(=O)c2cc(-c3ccc(OCC)cc3)nc3ccccc23)CC1 -88.9%
C/C(=N\NC(=O)CC1N=C(Cc2ccccc2)NNC1=O)c1ccc(C)cc1 (stereo not given) -5.66%
S=c1[nH]c2cc(Cl)c3cccnc3c2o1 -4.85%
O=c1cc(-c2ccc(Cl)c(Cl)c2)[nH][nH]1 -8.95%
O=C(CS(=O)(=O)c1ccccc1)c1cc2cc(F)ccc2oc1=O 19.1%
Cc1ccc(C)c(NC(=O)CS(=O)(=O)c2cn(C)c3ccccc23)c1 -5.97%
Clc1ccc(CCNc2nc3ccccc3n3nnnc23)cc1 -11.4%
CCOC(=O)CC1NCCc2c1[nH]c1ccc(OC)cc21 (stereo not given) -3.5%
Cc1cccc(C)c1N1CCN(S(=O)(=O)c2ccc(F)cc2)CC1 -43.5%
CCOC(=O)COc1ccc(/C=C2/SC(=Nc3ccccc3)N(Cc3cccnc3)C2=O)cc1OC -37.4%
CC(C)(C)OC(=O)N1CSC[C@H]1C(=O)NC[C@H](CC(=O)O)c1ccc(Cl)cc1 16.7%
Cc1ccc(C(NC(=O)/C=C\c2ccc3c(c2)OCO3)C(=O)Nc2ccc3c(c2)OCO3)cc1 (stereo not given) 3.46%
Clc1ccc(CNC2CCN(Cc3ccccc3)CC2)cc1 -6.16%
Cc1cc(NC(=O)CSc2nc3c(sc4ccccc43)c(=O)n2CCCN2CCOCC2)n[nH]1 -18.9%
O=c1[nH]c2ccccc2cc1CN(Cc1cccnc1)S(=O)(=O)c1ccc([N+](=O)[O-])cc1 -6.59%
CCC(C)Sc1nc2c([nH]c3ccccc32)c(=O)n1C (stereo not given) 0.12%
O=[N+]([O-])c1cccc(-c2nnc(CNC3CC3)o2)c1 6.78%
CCOC(=O)c1cn[nH]c1C(F)(F)F -11.9%
Cc1ccc(-c2csc3nc[nH]c(=O)c23)c(C)c1 -7.66%
CCN(Cc1ccccc1)C(=O)C1CCN(C/C(C)=C/c2ccccc2)CC1 6.1%
Cc1ccc(-c2cn(S(=O)(=O)c3ccc(C)cc3)nc2N)cc1 -18.8%
O=[N+]([O-])c1ccc(Sc2ncccn2)c([N+](=O)[O-])c1 -101%
COc1cc(-c2cn(S(=O)(=O)c3cccc4nsnc34)nc2N)cc(OC)c1OC -3.25%

Pulled by structure from above (six):
activation, inactive:
CCOC(=O)c1c(CN2CCC(C)CC2)n(C)c2cc(Br)c(OC)cc12 -19.1%
COc1ccc2cc(S(=O)(=O)N3CCCCC3)ccc2c1S(=O)(=O)N1CCCCC1 -15.5%
COc1cc(NC(=O)C2=C(N3CCOCC3)/C(=C\c3ccc(Br)cc3)CC2)cc(OC)c1OC -13.4%
Cc1ccccc1-n1c(-c2ccc(Cl)cc2)cnc1SCC(=O)NC1CCS(=O)(=O)C1 (stereo not given) -15.9%
Cc1ccc(-c2csc3nc[nH]c(=O)c23)c(C)c1 -7.66%
CSc1ccc(C2C(C#N)=C(N)N(c3ccccc3)C3=C2C(=O)CCC3)cc1 (stereo not given) 8.29%
